Measurements from article PMC3959197.
Results are given in words; binding and its absence hold for the method and conditions named. Binding seen in cells or lysates may run through a third protein. Some binding calls cover weakened binding; strength is not graded here.

Tests used:
[1] = target: T1, Drosophila MyD88 (Drosophila) (UniProt Q7K105); assay: co-IP; S2 cells co-transfected, lysed 48 h after transfection (150 mM NaCl, 50 mM Tris-HCl pH 7.4, 10% glycerol, 0.5% Triton X-100); immunoprecipitated with anti-Myc beads, immunoblot (Fig. 4b, 5f)
T1 sequence: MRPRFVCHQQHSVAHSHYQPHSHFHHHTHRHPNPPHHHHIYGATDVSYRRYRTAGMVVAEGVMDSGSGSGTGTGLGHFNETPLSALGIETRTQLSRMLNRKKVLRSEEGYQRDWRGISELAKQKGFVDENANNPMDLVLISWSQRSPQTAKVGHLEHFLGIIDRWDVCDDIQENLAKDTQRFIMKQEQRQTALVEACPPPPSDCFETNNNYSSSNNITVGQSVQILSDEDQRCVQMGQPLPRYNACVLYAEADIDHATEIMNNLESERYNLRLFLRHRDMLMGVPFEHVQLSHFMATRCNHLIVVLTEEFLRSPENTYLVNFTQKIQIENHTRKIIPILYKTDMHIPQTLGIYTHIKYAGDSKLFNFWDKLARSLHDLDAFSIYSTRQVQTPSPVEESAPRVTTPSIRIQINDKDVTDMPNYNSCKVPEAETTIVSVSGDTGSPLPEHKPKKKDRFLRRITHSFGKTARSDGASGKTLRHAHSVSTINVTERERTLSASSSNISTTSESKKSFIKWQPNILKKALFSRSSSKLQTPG

Tube (Drosophila) = target: T2, Tube (Drosophila) (UniProt P22812); assay: as above
T2 sequence: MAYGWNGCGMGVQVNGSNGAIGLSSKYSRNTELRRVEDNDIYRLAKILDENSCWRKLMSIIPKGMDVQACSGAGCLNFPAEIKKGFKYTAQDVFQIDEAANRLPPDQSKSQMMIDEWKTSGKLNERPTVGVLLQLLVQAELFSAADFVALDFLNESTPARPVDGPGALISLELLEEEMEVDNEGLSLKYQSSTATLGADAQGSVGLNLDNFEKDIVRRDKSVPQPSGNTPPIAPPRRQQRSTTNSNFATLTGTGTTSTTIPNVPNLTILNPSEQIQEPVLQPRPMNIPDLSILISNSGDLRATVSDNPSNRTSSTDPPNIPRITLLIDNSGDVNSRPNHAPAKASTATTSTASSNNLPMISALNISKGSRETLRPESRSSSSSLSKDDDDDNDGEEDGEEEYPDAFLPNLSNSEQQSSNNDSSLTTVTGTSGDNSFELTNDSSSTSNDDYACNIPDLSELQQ

[2] = target: T1, Drosophila MyD88 (Drosophila); assay: co-IP; co-immunoprecipitation of Pellino S/T-to-A mutants with MyD88 (Supplementary Fig. 9b); beads and tags not told
Pelle (Drosophila) = target: T3, Pelle (Drosophila) (UniProt Q05652); assay: co-IP; S2 cells co-transfected, lysed 48 h after transfection (150 mM NaCl, 50 mM Tris-HCl pH 7.4, 10% glycerol, 0.5% Triton X-100); immunoprecipitated with anti-Flag beads, immunoblot (Fig. 4a, 4c); in Fig. 4c cells pretreated 48 h with dsRNAs against tube or pelle
T3 sequence: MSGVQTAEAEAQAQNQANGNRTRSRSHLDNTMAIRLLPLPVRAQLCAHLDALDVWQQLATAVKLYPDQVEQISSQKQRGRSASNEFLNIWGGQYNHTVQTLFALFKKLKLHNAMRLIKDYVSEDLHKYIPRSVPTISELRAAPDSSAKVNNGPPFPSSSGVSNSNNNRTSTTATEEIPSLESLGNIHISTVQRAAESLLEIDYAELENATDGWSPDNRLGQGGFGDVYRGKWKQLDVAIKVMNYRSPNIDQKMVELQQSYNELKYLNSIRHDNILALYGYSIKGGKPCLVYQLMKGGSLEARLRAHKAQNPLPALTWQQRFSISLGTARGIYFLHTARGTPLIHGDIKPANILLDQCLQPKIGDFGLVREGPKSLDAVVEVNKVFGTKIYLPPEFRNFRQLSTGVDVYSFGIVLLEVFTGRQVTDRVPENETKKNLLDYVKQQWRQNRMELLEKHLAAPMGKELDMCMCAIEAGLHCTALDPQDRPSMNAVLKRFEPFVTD

[3] = target: T1, Drosophila MyD88 (Drosophila); assay: as above

Measured: binding

B1: Drosophila Pellino (enzyme, UniProt O77237 1-424)
chain: MVKRTDGTESPILAEDGGDGHDKPRLRYGELVILGYNGYLPQGDRGRRRSKFVLHKRTEASGVKRSKHYIVQSPQTSKAILDANQHSISYTLSRNQAVIVEYKEDTETDMFQVGRSSESPIDFVVMDTLPGDKKDAKVMQSTISRFACRILVNRCEPAKARIFAAGFDSSRNIFLGEKATKWQDNVEIDGLTTNGVLIMHPKGSFCGGNAKCGLWRECSVGGDVFSLRESRSAQQKGQPIYDECNILQDGTLIDLCGATLLWRSAEGLQHSPTKHDLEKLIDAINAGRPQCPVGLNTLVIPRKVNIGDQVNQPYVYLNCGHVQGHHDWGQDENTGARRCPMCLELGPVVTLCMGLEPAFYVDVGAPTYAFNPCGHMATEKTVKYWANVEIPHGTNGFQAVCPFCATPLDGATGYIKLIFQDNLD
binds: all assays above
